At least one structure is not confirmed: it was looked up by name or label, or the drawing left a doubt.
Tested on: elastase-perfused C57/BL6 mice (AAA formation)
Test: Aortic elastase perfusion-induced abdominal aortic aneurysm (AAA) model in mice
Type: in vivo, mouse
Conditions: 14 days post-perfusion; for AAA formation (aortic expansion, aortic diameter): elastase-perfused C57/BL6 (wild-type) mice, 25 mg/kg/day i.p. in 0.9% saline, 25 mg/kg/day

## O=C(O)c1cc(=O)c2c(OCC(O)COc3cccc4oc(C(=O)O)cc(=O)c34)cccc2o1 [DSCG, disodium cromoglycate]
  AAA formation (aortic expansion, aortic diameter): None of the mice injected with DSCG developed AAA lesions
Listed as disodium cromoglycate
  AAA formation (aortic expansion, aortic diameter): complete blocked AAA formation
elastase-perfused C57/BL6 mice, 25 mg/kg/day i.p., versus C57/BL6 control mice
  elastin degradation (Verhoeff-van Gieson staining): failed to show comparable elastin degradation
